Assay results from patent publication US12384767B2, “Probe for detection of cathepsin activity” (University of Florida Research Foundation, Incorporated, priority 2020, dated 2025).
Where “and” joins values, the source holds several entries; their conditions need not be identical. Identical values can stand only once. Residues, ends and D or L forms follow the SMILES beside them. *: point of attachment. AMC = Cc1cc(=O)oc2cc(N*)ccc12; Cbz = O=C(OCc1ccccc1)*

Test system: CTB, CTV, and CTS
Assay: Time-course cathepsin assay, total competing signal (sum of CTB, CTV, and CTS) normalized to CTL
Type: biochemical, human
Description: CTV and CTB appear to remain within the initial velocity region of the curves during this time, with a markedly lower slope than that observed for CTL initially.
The kinetic assays were repeated at pH 5.0 (FIG. 3C, D), and overall the same trends were observed as at pH 6.5. One notable difference is the altered reaction slope of CTL at this pH, which appears to have less of a plateau and instead seems to shift to a second phase of constant, yet slower, velocity. […] This improved activity of CTB at low pH is consistent with previous observations that CTB's unique carboxypeptidase activity is dependent on an acidic environment, and that this activity is disengaged at neutral pH^13.
To estimate relative selectivity of the compounds for CTL over the other enzymes, the intensity at each time point for CTB, CTV, or CTS, was divided by the intensity of CTL at the same time point; this normalizes CTL-generated signal intensity to 1.0, and expresses the relative signal generated by the other enzymes (FIG. 5). These graphs indicate that off-target signal is least prominent within the first 10 min of incubation, as the faster kinetics of the probes to CTL generate more contrast at these earlier time points. To quantify the selectivity of CTLAP and sc-3136, the lowest interfering signal from each enzyme was identified and tabulated in Table 1. Also identified was the assay time at which the total competing signal (sum of CTB, CTV, and CTS) was lowest, and the relative intensity of all competing enzymes at that time point. […] The optimum results are achieved within 10 min incubation time, lending strength to the application of CTLAP for rapid detection of CTL, even in the presence of competing enzymes.
Table 1. Signal generated by CTB, CTV, and CTS, or all three enzymes together, relative to CTL signal at that time point. The lowest competing signal over the time course in FIG. 5 was selected for each individual enzyme, as well as for the sum of signals from all three enzymes. The time point at which the sum of all competing signals is lowest is also listed.
• 1. Recombinant human Cathepsin L/MEP protein (Active) • a. Product ab174030; Lot No. (Conc.) GR3210572-1 (N/A) Sino Biological • 1. Human Cathepsin B/CTSB Protein (His Tag) • a. Cat. No. 10483-H08H • 2. Human Cathepsin V/Cathepsin L2/Preproprotein Protein (His Tag) • a. Cat. No. 10093-H08H • 3. Human Cathepsin S/CTSS Protein (His Tag) • a. Cat. No. 10487-H08H Santa Cruz Biotechnology, Inc. • 1. […]
Cathepsins reconstituted as usual and diluted into cathepsin reaction buffers (pH 5.0 or 6.5) in an opaque-bottom 96-well plate. Probes added quickly to each active well, then emission measured immediately on BioTek Synergy H1 plate reader, collecting consecutive 36 sec runs over the first 15 min of reaction time. […]

Structure (SMILES) | time point at which the sum of all competing signals is lowest (pH 5.0) | time point at which the sum of all competing signals is lowest (pH 6.5)
Cc1cc(=O)oc2cc(NC(=O)C(CCCCN)NC(=O)C(Cc3ccc(-c4cccs4)cc3)NC(=O)OCc3ccccc3)ccc12 (stereo not shown) [CTLAP] | 3.4 to 4.0 min | 10.2 to 10.4 min and 10.2 to 11.4 min
Cc1cc(=O)oc2cc(NC(=O)C(CCCN=C(N)N)NC(=O)C(Cc3ccccc3)NC(=O)OCc3ccccc3)ccc12 (stereo not drawn) [sc-3136, Z-FR-AMC, reference compound] (Cbz-Phe-Arg-{AMC}; configuration not given here) | 7.6 min | 11.4 min
